# From the supplement of paper PMC3334620
# In all, about 33,000 sequences were measured (“E-score (-0.5 to 0.5)”: median about -8e-05, highest 2% from about 0.23 on). This is one part of the list.
# Molecular target: T1, Nrg2 (UniProt P38082)
# T1 sequence: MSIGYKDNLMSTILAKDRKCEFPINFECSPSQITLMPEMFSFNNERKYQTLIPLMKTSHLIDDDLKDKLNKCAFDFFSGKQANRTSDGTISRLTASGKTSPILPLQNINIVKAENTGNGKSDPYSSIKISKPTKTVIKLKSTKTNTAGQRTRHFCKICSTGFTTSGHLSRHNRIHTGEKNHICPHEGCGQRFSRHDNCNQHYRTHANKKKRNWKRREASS
# Experiment: PBM E-score (8-mer binding enrichment) (E-score (-0.5 to 0.5)); higher = stronger / more preferred TF binding
# Settings: protein concentration: 100 nM; construct: GST-full length
# In short: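 E-scores (a modified Wilcoxon-Mann-Whitney statistic) were assigned by the Universal PBM Analysis Suite to every ungapped eight-base word pooled with its reverse complement. The input came from universal all-10-mer Agilent arrays made double-stranded by primer extension and probed with GST-tagged yeast transcription factors at about 100-200 nM. Fluorescent anti-GST detected bound protein, and masliner normalised the scans.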
row,Sequence,PBM E-score
1,GGGGTGCA,0.104
2,ACCATATA,0.207
3,ACCAAATG,0.036
4,ACCCTAGT,-0.0371
5,CGAAACAA,0.175
6,GTCATGAC,0.085
7,AAGAGCGA,-0.07
8,GCAATCCA,-0.00518
9,GAAACTCA,0.00034
10,ATTTCGAC,-0.0855
11,ACCGCTCA,0.0791
12,GGGCCCAC,0.203
13,CGTCGCTC,-0.0552
14,AATTTGAT,0.0437
15,CGGGAGTA,-0.087
16,GCAACAGC,-0.0566
17,ACTCGGAA,0.0922
18,ACAACCGC,0.184
19,TTCAGCAA,0.0275
20,CCCCAATC,0.0395
21,TATCGGCA,0.131
22,AGTCGCAG,0.00843
23,TCCTACAA,0.00569
24,GGTTGGAA,0.0303
25,ACCAGGCT,-0.153

row,Sequence,PBM E-score
1,GGCCACTA,-0.0817
2,CAACCCAA,-0.182
3,GCCCCGTA,-0.132
4,TGCCCACA,-0.0506
5,ATGAGTAG,0.047
6,ACGTTGTC,-0.025
7,CGAGACAG,0.168
8,AATAAACT,0.0635
9,GACCTATC,-0.0451
10,CATGAGCG,0.105
11,GCCCTAGA,-0.238
12,GAAAGTTA,0.125
13,AAGCACGC,0.0373
14,CCCCCCGA,-0.421
15,ATGGTCCG,0.171
16,ACATTTCG,0.0534
17,GTCCTGCA,-0.122
18,CAAGAAAC,0.0958
19,ACATCAGT,0.119
20,ATGCGGGC,0.12
21,CGGTGTTA,-0.191
22,ATGCACGC,0.0308
23,CGTACAAC,0.00972
24,ACTAGGTC,0.14
25,GATCGCCC,0.107

row,Sequence,PBM E-score
1,TCTTATCA,0.129
2,ATTACCCA,0.0885
3,AATGTTTA,-0.0428
4,CGATTTAC,0.0291
5,ACGAGCCG,-0.0621
6,CGACGGCC,-0.00924
7,ACAAGCTA,-0.0632
8,CCTTCACC,-0.0756
9,AGATTGGG,0.0805
10,TGAATTAA,0.273
11,ACGGGGTG,0.0543
12,CAACTATA,-0.175
13,ACCGTCCA,-0.00229
14,AAAACGCT,-0.212
15,AGGAATTC,-0.0557
16,CACCGCGA,-0.179
17,CAACGGTG,-0.187
18,ATGCAGCA,0.0643
19,AAAATTTC,0.0206
20,ACGTCAAT,0.0297
21,AGGAGCCC,-0.0807
22,AAGTCGAC,0.145
23,AACGGTCG,-0.064
24,CCTCGGCG,0.168
25,TGGGCTAA,0.0966

row,Sequence,PBM E-score
1,AAAAAAAG,0.0862
2,AAAACACA,0.132
3,CCTCAGTC,-0.0912
4,AGCAATTC,0.0177
5,AGGGCGCG,0.0238
6,CTTCTTAA,0.052
7,AAATGCTC,0.00815
8,CTTCAACA,0.0511
9,GATGAAAA,0.0467
10,CGCCCGAA,-0.0417
11,AAACTCAG,0.0476
12,CCACCATC,-0.163
13,ATTCCATA,0.106
14,AAAGTCGA,-0.0895
15,GAGCACGC,-0.175
16,ACCGTCTA,-0.157
17,AATCATAC,0.116
18,AACACGCT,-0.0211
19,CTGTGTCC,-0.107
20,CTTTTCTC,0.00218
21,ACTCTAGC,-0.23
22,AAGATCAG,-0.0343
23,ACTCGGTA,-0.06
24,TAGCCCTA,-0.117
25,CCTATTCG,-0.116

# Five records picked at random from the list so far:
row,Sequence,PBM E-score
14,AATTTGAT,0.0437
20,ACGTCAAT,0.0297
18,CAAGAAAC,0.0958
5,AGGGCGCG,0.0238
25,GATCGCCC,0.107

# Next part

row,Sequence,PBM E-score
1,CGCGCAGC,0.0142
2,CTCTGATA,0.00461
3,TAGGGCGA,-0.102
4,CAAGTCTA,-0.0983
5,CCTGGTCC,0.16
6,TAATGAGA,0.0314
7,CCCTCCGA,-0.124
8,AGTGATTA,0.135
9,AATCTGAC,0.0791
10,CATACTTA,0.0179
11,GGCTCTCA,-0.263
12,ATAGAAAT,0.22
13,CGACTATC,0.0892
14,ATCCCCAA,0.114
15,AGGGTGGA,0.0748
16,ACTTACGA,0.192
17,CAGTGTAG,-0.0273
18,ATAACCTC,-0.0408
19,ATAGTATG,0.0928
20,CACCCGCC,0.2
21,ACCTCAAA,-0.00797
22,TAGGAGGA,-0.083
23,CCCTGGCA,0.207
24,GAAAAACA,-0.0315
25,GGAACTAC,0.0701

row,Sequence,PBM E-score
1,CGGGAAGC,0.00086
2,CTGGCGCA,-0.117
3,GCTTTGCA,-0.195
4,CCGTCCTC,-0.196
5,AACCTTTA,-0.164
6,AAACCGGA,0.0713
7,CTTACGGC,-0.191
8,AACACCCC,0.0806
9,CTTTTAGA,-0.167
10,GTGCCCAC,-0.0915
11,CCAAGTAA,0.0954
12,CCCCCGCC,-0.279
13,GACACAGC,-0.105
14,GACGAGTA,0.113
15,AGAGTTAT,0.125
16,ACGTCTCT,-0.0688
17,CCATCATC,0.00441
18,AACGCTAG,-0.141
19,CGATGTCA,0.0217
20,TCCAGGCA,0.0917
21,AGAACGAG,0.00716
22,ATATCAAC,0.127
23,GCTCACAA,0.0948
24,ATATATAT,0.107
25,CTAGGCTC,-0.334

row,Sequence,PBM E-score
1,ACCGCGTG,-0.0595
2,CGTCCAAC,-0.208
3,GTCCCGAA,-0.069
4,AAGACACA,-0.122
5,ACCGGGTA,0.00068
6,CAGCATGA,-0.137
7,AAATATCT,0.0658
8,CACGCGGC,-0.0674
9,CTAGAAAA,-0.146
10,CTCTGTTC,-0.00809
11,CGATGGGC,0.128
12,CAATACTC,0.217
13,ATGAGCTC,0.0893
14,ACTGTCGC,-0.00119
15,AAGGACAC,-0.104
16,TCTGATAA,0.0758
17,TATCCAAA,0.153
18,GCTAAAGA,0.0825
19,GGTAAAAA,0.0979
20,CGCGCCAG,0.0135
21,GGCGGGAC,-0.148
22,ACCTCGTC,0.162
23,GTCCTTTA,-0.04
24,ACGTAGAT,0.117
25,GATTCCAC,0.0524

row,Sequence,PBM E-score
1,AGGACCAC,-0.0737
2,CACAAAGA,-0.0269
3,GGCTTCGA,-0.0892
4,GGTGGAAA,-0.0517
5,GTGCCTCA,-0.191
6,GGATAATA,0.131
7,CTAACATA,-0.0449
8,GTCGCAAC,0.0102
9,AAGGTGAC,-0.0742
10,AAAGATTC,-0.0202
11,GGCACGGA,-0.00838
12,CTCTTGTA,0.00666
13,CCTCTCTA,-0.294
14,GGGTACAC,-0.0407
15,GCGCGTGA,0.0824
16,AAAACCAC,-0.0242
17,GACGCTTA,-0.122
18,ACACTAGG,0.106
19,CTCCATAC,0.101
20,GAAGCTCC,0.0217
21,CATACAGC,-0.0898
22,CCCAAGCA,0.0289
23,GCTCCAGC,0.161
24,GGGAGCAA,-0.177
25,AGTCGTAA,0.0577

# 2 consecutive records out of the list so far:
row,Sequence,PBM E-score
17,GACGCTTA,-0.122
18,ACACTAGG,0.106

# (listing goes on)

row,Sequence,PBM E-score
1,GCCACGGC,-0.159
2,GCCGGAAA,0.104
3,CCCGTATC,-0.0469
4,CTAAGGAG,-0.197
5,TAGTCACA,-0.0452
6,GGTTGCAC,-0.0321
7,GAGCCTCA,-0.173
8,GAATCTAA,0.00962
9,AGCCACTG,0.0457
10,CATCCTAC,-0.068
11,AAAGGAAT,-0.0792
12,GCGATTTA,0.166
13,GATAGGGC,0.162
14,AGCTGGCC,0.104
15,CCCCCGAA,-0.329
16,CTGGTTGC,0.17
17,GGTGGTTA,-0.128
18,GAATTAAC,0.0791
19,CAGTAGAC,-0.115
